Reference: US4366162A, “Aryl ethers of N-alkyl-piperidines and acid addition salts thereof” (AB Ferrosan, priority 1977, dated 1982)
In brackets after ≈: the same amount, converted by molar mass.

Test system: acetylcholine induced contraction of guinea pig ileum
Experiment: Anticholinergic activity: acetylcholine induced contraction of guinea pig ileum
Settings: acetylcholine 0.02 μg/ml, 50% inhibition of the contraction

## O=C(CCCN1CCC(O)(c2ccc(Cl)cc2)CC1)c1ccc(F)cc1 [Haloperidol, haloperidol]
  ED50, Anticholinergic activity: 32 µg/mL (≈ 85.1 µM)
